Measurements as given in paper doi:10.1101/2025.11.27.691040 (bioRxiv, 2025).

By UniProt entry, the sequences of proteins in these tests, tags left out.
UniProt Q9SSD2: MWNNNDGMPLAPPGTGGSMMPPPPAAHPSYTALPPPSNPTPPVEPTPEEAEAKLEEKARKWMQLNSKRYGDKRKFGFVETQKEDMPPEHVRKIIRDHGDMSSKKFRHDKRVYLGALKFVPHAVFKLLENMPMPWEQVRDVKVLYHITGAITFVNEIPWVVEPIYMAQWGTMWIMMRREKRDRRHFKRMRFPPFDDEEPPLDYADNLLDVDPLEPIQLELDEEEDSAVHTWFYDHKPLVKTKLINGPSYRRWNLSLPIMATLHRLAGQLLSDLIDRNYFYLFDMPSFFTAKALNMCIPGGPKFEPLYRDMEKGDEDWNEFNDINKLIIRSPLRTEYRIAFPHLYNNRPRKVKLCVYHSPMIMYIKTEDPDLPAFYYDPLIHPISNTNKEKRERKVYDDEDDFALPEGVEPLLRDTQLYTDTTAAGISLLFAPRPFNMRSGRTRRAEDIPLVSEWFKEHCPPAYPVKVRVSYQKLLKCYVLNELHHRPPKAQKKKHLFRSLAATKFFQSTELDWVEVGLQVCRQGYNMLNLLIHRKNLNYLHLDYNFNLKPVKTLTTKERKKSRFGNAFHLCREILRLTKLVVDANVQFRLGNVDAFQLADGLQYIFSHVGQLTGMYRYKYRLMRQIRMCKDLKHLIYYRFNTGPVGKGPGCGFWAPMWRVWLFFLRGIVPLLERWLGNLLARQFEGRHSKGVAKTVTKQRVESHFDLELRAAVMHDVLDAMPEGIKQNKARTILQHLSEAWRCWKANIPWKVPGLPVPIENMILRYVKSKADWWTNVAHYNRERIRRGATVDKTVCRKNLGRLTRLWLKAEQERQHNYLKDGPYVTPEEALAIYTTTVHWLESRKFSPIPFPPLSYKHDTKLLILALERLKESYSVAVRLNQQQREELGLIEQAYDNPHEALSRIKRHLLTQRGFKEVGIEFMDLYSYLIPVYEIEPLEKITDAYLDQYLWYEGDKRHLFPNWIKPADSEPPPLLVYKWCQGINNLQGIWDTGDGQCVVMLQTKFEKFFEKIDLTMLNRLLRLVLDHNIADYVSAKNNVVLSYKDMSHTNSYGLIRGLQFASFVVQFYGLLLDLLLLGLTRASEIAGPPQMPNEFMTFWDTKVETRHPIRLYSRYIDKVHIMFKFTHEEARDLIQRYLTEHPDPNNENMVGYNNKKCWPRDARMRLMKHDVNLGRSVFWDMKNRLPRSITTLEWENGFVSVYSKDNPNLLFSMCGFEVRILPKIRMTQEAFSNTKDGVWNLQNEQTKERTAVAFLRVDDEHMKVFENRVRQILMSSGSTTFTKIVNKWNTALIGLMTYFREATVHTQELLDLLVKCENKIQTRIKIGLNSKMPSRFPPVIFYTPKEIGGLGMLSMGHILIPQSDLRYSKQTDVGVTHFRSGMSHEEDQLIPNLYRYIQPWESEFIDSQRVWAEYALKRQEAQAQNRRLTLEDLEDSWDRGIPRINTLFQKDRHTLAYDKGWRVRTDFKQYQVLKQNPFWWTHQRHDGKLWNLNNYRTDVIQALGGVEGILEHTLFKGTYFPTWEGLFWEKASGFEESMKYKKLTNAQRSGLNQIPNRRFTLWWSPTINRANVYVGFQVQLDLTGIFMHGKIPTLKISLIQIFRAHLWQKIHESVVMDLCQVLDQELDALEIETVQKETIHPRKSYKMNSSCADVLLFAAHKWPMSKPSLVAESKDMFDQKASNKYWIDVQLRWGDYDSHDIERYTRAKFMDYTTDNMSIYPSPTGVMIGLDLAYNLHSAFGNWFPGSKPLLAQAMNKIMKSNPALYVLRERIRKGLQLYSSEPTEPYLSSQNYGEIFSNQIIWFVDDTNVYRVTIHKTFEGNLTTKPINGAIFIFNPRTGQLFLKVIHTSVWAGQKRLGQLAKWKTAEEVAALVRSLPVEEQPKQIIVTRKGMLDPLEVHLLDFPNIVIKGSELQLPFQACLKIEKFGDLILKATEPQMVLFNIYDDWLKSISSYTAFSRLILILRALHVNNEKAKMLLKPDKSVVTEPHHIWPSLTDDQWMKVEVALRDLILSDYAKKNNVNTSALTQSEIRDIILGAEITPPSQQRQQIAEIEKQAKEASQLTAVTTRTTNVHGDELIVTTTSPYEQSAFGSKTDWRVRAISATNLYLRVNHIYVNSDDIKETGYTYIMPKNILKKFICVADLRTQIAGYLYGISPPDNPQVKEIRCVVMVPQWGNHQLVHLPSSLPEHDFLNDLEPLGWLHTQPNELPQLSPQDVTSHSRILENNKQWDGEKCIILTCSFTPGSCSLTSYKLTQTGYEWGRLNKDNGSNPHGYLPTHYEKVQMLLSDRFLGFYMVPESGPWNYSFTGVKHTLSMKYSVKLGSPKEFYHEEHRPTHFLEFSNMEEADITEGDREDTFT

B1: casein kinase II α-subunit isoform 1 (AtCKA1), endogenous (enzyme, UniProt Q08467 37-409)
chain: PILRSSIVTPTARAVSEVSGCTTIDPDFLVEISDSNQTRAMSKARVYTEVNVIRPKDYWDYESLIVQWGEQDDYEVVRKVGRGKYSEVFEGINVNSKEKCIIKILKPVKKKKIRREIKILQNLCGGPNIVKLLDVVRDQHSKTPSLIFEYVNSTDFKVLYPTLTDYDIRYYIYELLKALDFCHSQGIMHRDVKPHNVMIDHELRKLRLIDWGLAEFYHPGKEYNVRVASRYFKGPELLVDLQDYDYSLDMWSLGCMFAGMIFRKEPFFYGHDNQDQLVKIAKVLGTDELNAYLNKYQLELDPQLEALVGRHSRKPWSKFINADNQHLVSPEAIDFLDKLLRYDHQDRLTAKEAMAHAYFAQVRAAETSRMRSQ
B2: AtNAA15, endogenous (protein, UniProt Q8VZM1 1-897)
chain: MGASLPPKEANLFKLIVKSYETKQYKKGLKAADAILKKFPDHGETLSMKGLTLNCMDRKTEAYELVRLGVKNDIKSHVCWHVLGLLYRSDREYREAIKCYRNALRIDPDNLEILRDLSLLQAQMRDLSGFVETRQQLLTLKPNHRMNWIGFAVSQHLNANASKAVEILEAYEGTLEDDYPPENELIEHTEMILYKVSLLEESGSFDKALEELHKKEPKIVDKLSYKEQEVSLLSKVGRLEEANKLYRVLLSMNPDNYRYHEGLQKCLGLYSESGQYSSDQIEKLNALYQSLSEQYTRSSAVKRIPLDFLQDENFKEAVAKYIKPLLTKGVPSLFSDLSSLYDHPRKPDILEQLVVEMKHSIGTTGSFPGSDVKEPPSTLLWTLFFLAQHYDRRGQYDVALCKIDEAIAHTPTVIDLYSVKSRIMKHAGDLTAAAALADEARGMDLADRYINSECVKRMLQADQVPLAEKTAVLFTKEGDQLNNLHDMQCMWYDLASGDSYFRQGDLGRALKKFLAVEKHYADISEDQFDFHSYCLRKMTLRSYVDMLKFQDRLHSFPYFHKAAIRAIRCYLKLHDSPKSTAGEDEMSKLAPAQKKKIKKQKKAEARAKKEAESKSEESTASGASKSGKRNVKPVDPDPHGQKLIQVEEPMAEASKYLRLLQKHSPNSLETHLLSFEVNMRKQKFLLAFQAVKQLLKLGAENPDSHRSLVKFFLMTESISAPTTEAEKLRWRVLEAERPSISQLQNKSLMEANKEFLGRHEDSLVHRAAYAEMLYILDPSKKTEAIKIIEDSTNKVVQTNEALGQAREWKLKDCIAVHTLLDTVLLDSQAASRWKSRCAEYFPCSTHFEGKHCSLMPDSVYNSSRKSNENGDTPNHPMGQTELSDGQLEAFKSLSVAT
B3: AtLOS4, endogenous (protein, UniProt Q93ZG7 1-496)
chain: MADTVEKVPTVVESSSSSTVEASNSAEKTEPTTEKKKWGDVEDDDDEEEAVSELNSLSIKEEEKPDSILEEPEDSNIKAVTSGDTPYTSASRFEDLNLSPELMKGLYVEMKFEKPSKIQAISLPMIMTPPHKHLIAQAHNGSGKTTCFVLGMLSRVDPTLREPQALCICPTRELANQNMEVLQKMGKFTGITAELAVPDSTRGAPAATRGAPVSAHVVIGTPGTLKKWMAFKRLGLNHLKILVFDEADHMLATDGFRDDSLKIMKDIGRVNPNFQVLLFSATFNETVKDFVARTVKDPNQLFVKREDLALDSVKQYKVVCPKEQNKIEVIKDQIMELGDIGQTIIFVKTKASAQKVHKALAEMGYDVTSVHGNLTESDRDKIVKEFKECLTQVLIATDVIARGFDQQRVNLVVNYNLPTKYETGEPDYEVYLHRVGRAGRFGRKGAVFNLLLDDGWDKEVMEKIEKYFEANVKEIKSWNSEEEYKSALKEAGLLDE

Molecular target: T1, AtVIH2-mCit (pAtVIH2::AtVIH2-mCit fusion protein) (Arabidopsis thaliana) (UniProt F4J8C6)
T1 sequence: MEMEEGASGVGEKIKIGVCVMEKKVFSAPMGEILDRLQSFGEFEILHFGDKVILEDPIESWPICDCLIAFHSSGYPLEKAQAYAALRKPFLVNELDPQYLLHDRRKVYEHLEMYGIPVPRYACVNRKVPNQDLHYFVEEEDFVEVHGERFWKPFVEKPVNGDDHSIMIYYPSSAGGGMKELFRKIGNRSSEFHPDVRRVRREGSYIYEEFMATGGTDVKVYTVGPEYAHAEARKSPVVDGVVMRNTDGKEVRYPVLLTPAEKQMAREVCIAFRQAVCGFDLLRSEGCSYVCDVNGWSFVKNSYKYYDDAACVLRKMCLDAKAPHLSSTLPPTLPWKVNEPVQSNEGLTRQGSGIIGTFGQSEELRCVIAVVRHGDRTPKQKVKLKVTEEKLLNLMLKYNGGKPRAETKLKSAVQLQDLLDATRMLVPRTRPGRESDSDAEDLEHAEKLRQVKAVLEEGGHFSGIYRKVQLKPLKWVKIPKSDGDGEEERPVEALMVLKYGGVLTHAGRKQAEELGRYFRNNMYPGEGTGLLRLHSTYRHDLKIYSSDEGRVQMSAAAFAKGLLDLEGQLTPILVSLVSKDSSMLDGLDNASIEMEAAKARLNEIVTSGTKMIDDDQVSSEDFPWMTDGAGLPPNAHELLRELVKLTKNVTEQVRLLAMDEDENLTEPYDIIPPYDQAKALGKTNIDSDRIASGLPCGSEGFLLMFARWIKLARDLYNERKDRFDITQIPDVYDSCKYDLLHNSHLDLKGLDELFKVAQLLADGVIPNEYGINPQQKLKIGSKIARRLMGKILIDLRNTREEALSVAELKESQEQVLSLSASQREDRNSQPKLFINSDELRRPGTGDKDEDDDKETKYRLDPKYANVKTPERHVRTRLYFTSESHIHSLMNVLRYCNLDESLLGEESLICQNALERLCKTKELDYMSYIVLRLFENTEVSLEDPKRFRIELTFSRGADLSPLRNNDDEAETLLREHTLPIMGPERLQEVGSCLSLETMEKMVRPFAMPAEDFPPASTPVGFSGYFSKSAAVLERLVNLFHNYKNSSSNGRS
Assay: affinity purification with mass spectrometry

binding, binds:
AtPRP8A, endogenous (from UniProt Q9SSD2 1-2359)
B1
B2
B3

Results are given in words; binding and its absence hold for the method and conditions named. In cells and extracts the contact can be indirect. Here binding means that the protein was enriched with, or labelled near, the bait; the list need not be complete. Tags and fused reporters may be left off the sequences shown.
